From patent publication US20050003401, “Pfu replication accessory factors and methods of use” (Stratagene, published 2005)

Test system: RFC complex (P55/P38), native immunoaffinity purified (Pyrococcus furiosus)
Assay: activity assay
Conditions: ATPase stimulated by primed M13 DNA; enhances primer extension by Pfu + PCNA; purified native protein; folded or branched DNA

GGTTTTCCCAGTCACGACGTTGTAAAACGACGGCCAGTGC [40-mer primer annealed to single-stranded M13mp18]
activity on this sequence: active

For at least one entry, the source does not settle the construct or the ends of the probe.
